Experimental data: PubChem BioAssay AID1508588 (Peter MacCallum Cancer Centre, 2020)
This is an unselected part of about 18,000 reagents. Over the whole deposit, 790 (4.4%) were called active. 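Calls rest on a combination of fold-change classes in drug and vehicle arms, not all shown here.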 Entries without a mark were called inactive. Reagents against one gene are numbered here.

Assay: 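Which gene losses make BRAF-mutant melanoma cells more responsive to vemurafenib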 (primary screen)
System: human WM266.4 melanoma cells (BRAF V600 mutant)
Reagent: siRNA pool against human genes, 40 nM
Timing: 96 h from transfection to read-out
Treatment: vemurafenib 300 nM (about IC25), added 48 h after transfection, for 48 h; comparison arm got DMSO vehicle only
Measured: 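Ratios to non-targeting siRNA for cell gain, counted as DAPI nuclei after minus before drug and averaged over two replicates, and for absorbance-read medium lactate per cell; both binned into fold-change classes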
Scale: cell gain with vemurafenib: higher = more cell gain than with non-targeting siRNA; lactate per cell with vemurafenib: higher = more lactate made per cell
Hit rule: 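a knock-down counts as enhancing when its fold-change classes with vehicle and with vemurafenib, taken together, show a stronger drug effect on cell gain or lactate per cell; exact class pairs not stated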
Calls: active = enhances vemurafenib effect; inactive = no enhancement seen

HSPA5 (GeneID 3309) — cell gain with vemurafenib = 0.46; lactate per cell with vemurafenib = 1.22
OPRM1 (GeneID 4988) — cell gain with vemurafenib = 0.76; lactate per cell with vemurafenib = 0.76
NAGLU (GeneID 4669) — cell gain with vemurafenib = 0.69; lactate per cell with vemurafenib = 0.8
ECD (GeneID 11319) — cell gain with vemurafenib = 1.13; lactate per cell with vemurafenib = 0.88
SLITRK1 (GeneID 114798) — cell gain with vemurafenib = 0.64; lactate per cell with vemurafenib = 0.57
LSP1 (GeneID 4046) — cell gain with vemurafenib = 1.06; lactate per cell with vemurafenib = 0.66
DLGAP5 (GeneID 9787) — cell gain with vemurafenib = 0.52; lactate per cell with vemurafenib = 1.23
RPL38 (GeneID 6169) — cell gain with vemurafenib = 0; lactate per cell with vemurafenib = 1.73

A stretch of the results above:
NAGLU (GeneID 4669) — cell gain with vemurafenib = 0.69; lactate per cell with vemurafenib = 0.8
ECD (GeneID 11319) — cell gain with vemurafenib = 1.13; lactate per cell with vemurafenib = 0.88

More records follow:
RBL1 (GeneID 5933) — cell gain with vemurafenib = 0.72; lactate per cell with vemurafenib = 1.15
TMOD2 (GeneID 29767) — cell gain with vemurafenib = 0.11; lactate per cell with vemurafenib = 0.75
PDZRN4 (GeneID 29951) — cell gain with vemurafenib = 1.07; lactate per cell with vemurafenib = 0.74
SSBP4 (GeneID 170463) — cell gain with vemurafenib = 0.28; lactate per cell with vemurafenib = 0.64
PRKY (GeneID 5616) — cell gain with vemurafenib = 0.34; lactate per cell with vemurafenib = 2
SLC25A33 (GeneID 84275) — cell gain with vemurafenib = 0.9; lactate per cell with vemurafenib = 0.52
GLUD1 (GeneID 2746) — cell gain with vemurafenib = 1.22; lactate per cell with vemurafenib = 0.53
PTPN20 (GeneID 26095) #1 — cell gain with vemurafenib = 0.79; lactate per cell with vemurafenib = 0.17
PTPN20 (GeneID 26095) #2 — cell gain with vemurafenib = 0.61; lactate per cell with vemurafenib = 0.34
